# This is one part of the list.
# Chains of the proteins cited; added tags and fusions are not shown. Lines headed by an entry give the natural chain unless they say otherwise; changes in a name come on top.
# UniProt Q8TCT8: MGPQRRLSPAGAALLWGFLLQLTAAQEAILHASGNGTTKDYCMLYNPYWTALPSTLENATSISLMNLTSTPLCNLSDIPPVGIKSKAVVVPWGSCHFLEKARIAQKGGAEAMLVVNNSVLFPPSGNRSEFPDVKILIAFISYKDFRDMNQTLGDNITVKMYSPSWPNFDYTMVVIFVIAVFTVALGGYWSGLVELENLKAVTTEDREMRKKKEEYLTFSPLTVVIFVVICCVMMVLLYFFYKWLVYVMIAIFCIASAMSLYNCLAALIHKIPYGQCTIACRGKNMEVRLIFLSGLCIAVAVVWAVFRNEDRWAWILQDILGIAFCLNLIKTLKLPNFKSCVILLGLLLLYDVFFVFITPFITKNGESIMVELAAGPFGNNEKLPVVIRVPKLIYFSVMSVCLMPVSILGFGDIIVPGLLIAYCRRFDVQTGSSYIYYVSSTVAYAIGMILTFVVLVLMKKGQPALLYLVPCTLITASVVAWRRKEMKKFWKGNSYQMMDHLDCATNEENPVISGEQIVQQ
# UniProt P84103: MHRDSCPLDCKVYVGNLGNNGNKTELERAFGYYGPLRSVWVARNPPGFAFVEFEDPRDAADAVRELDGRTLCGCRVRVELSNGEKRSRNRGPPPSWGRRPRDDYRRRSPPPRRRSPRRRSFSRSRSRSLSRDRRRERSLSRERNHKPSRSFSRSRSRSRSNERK
# UniProt Q8TCT7: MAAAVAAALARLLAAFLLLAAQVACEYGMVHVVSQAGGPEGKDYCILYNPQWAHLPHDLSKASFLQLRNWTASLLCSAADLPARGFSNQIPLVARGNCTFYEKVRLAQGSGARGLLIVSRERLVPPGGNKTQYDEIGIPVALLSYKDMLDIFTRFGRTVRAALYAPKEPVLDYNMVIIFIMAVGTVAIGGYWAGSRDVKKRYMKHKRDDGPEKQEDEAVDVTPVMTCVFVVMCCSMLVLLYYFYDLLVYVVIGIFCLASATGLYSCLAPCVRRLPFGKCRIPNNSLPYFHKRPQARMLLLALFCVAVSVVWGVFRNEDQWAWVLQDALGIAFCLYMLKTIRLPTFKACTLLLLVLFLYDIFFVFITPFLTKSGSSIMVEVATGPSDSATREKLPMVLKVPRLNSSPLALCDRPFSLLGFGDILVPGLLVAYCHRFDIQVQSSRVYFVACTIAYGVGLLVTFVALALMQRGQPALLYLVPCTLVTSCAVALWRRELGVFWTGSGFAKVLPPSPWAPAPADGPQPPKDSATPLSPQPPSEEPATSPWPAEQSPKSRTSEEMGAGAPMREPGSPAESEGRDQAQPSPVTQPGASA
# UniProt Q9Y6E0: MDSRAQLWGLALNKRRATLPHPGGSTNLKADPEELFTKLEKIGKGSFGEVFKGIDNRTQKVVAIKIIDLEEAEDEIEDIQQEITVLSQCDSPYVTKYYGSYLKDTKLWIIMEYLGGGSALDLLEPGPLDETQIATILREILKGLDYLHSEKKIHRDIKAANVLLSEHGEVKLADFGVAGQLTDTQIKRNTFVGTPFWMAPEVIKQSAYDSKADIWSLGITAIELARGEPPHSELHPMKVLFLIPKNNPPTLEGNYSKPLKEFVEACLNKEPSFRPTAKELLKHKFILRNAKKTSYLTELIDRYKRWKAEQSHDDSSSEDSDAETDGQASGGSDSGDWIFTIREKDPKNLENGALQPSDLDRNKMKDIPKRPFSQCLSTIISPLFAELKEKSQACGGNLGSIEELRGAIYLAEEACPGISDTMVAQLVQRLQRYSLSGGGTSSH
# UniProt P40763, whole entry, looked up: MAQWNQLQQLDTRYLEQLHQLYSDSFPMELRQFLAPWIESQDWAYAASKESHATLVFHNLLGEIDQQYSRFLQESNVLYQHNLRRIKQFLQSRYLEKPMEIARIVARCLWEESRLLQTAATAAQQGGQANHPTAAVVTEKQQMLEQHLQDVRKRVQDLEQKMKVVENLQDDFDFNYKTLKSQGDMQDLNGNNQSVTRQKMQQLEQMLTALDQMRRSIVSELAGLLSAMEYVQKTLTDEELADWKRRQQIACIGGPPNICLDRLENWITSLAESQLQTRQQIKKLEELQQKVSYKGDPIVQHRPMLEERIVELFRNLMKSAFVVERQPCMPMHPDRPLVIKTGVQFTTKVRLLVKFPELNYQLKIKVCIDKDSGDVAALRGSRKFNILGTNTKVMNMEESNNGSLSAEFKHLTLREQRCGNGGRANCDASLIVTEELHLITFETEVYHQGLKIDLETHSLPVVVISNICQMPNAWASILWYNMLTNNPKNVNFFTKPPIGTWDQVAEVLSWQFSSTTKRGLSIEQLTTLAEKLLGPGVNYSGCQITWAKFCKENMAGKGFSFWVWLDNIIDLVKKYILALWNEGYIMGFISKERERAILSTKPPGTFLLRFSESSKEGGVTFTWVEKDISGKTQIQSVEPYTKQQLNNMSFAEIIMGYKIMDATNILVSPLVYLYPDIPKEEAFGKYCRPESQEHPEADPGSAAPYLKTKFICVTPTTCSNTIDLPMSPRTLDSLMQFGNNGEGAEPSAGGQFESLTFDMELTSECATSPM
# UniProt P42229: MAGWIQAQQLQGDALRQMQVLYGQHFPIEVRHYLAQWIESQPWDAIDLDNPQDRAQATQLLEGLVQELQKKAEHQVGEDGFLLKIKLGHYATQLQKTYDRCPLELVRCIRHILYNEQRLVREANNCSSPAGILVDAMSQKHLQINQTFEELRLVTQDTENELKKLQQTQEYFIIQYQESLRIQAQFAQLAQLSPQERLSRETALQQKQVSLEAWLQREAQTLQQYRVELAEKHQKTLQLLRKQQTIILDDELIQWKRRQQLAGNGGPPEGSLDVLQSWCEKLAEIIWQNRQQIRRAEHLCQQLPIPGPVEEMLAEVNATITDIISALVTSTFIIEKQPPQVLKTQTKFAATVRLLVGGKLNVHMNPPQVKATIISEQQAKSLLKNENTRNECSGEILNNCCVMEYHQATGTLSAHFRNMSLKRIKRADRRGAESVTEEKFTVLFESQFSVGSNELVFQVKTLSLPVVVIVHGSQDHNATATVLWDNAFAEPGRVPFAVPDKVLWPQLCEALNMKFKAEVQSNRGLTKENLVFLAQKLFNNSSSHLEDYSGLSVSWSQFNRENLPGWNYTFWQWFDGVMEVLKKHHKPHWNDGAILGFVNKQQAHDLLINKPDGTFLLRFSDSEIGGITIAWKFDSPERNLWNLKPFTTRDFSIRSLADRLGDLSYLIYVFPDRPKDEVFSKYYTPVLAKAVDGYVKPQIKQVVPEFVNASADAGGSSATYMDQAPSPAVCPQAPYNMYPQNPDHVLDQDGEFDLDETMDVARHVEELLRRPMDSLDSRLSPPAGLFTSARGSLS
# UniProt O76094: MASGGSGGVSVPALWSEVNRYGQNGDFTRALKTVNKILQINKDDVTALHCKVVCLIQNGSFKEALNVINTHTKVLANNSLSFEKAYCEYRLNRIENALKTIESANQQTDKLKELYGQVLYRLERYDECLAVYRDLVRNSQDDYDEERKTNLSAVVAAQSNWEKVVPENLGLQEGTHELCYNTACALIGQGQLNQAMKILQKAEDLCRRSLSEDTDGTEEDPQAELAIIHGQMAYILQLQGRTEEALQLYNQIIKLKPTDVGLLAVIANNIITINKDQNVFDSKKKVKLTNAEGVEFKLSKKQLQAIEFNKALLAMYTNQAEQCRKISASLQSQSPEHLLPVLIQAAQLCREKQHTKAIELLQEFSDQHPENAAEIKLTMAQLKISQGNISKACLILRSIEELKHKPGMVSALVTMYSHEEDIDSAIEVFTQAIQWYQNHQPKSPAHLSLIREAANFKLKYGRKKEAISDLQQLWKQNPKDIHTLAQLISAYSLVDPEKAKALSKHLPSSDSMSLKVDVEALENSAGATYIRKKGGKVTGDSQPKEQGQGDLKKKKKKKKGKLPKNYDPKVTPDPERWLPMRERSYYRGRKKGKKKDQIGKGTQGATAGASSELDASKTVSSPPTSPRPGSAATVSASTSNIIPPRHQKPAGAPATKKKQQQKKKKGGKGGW
# UniProt Q9H254, whole entry, looked up: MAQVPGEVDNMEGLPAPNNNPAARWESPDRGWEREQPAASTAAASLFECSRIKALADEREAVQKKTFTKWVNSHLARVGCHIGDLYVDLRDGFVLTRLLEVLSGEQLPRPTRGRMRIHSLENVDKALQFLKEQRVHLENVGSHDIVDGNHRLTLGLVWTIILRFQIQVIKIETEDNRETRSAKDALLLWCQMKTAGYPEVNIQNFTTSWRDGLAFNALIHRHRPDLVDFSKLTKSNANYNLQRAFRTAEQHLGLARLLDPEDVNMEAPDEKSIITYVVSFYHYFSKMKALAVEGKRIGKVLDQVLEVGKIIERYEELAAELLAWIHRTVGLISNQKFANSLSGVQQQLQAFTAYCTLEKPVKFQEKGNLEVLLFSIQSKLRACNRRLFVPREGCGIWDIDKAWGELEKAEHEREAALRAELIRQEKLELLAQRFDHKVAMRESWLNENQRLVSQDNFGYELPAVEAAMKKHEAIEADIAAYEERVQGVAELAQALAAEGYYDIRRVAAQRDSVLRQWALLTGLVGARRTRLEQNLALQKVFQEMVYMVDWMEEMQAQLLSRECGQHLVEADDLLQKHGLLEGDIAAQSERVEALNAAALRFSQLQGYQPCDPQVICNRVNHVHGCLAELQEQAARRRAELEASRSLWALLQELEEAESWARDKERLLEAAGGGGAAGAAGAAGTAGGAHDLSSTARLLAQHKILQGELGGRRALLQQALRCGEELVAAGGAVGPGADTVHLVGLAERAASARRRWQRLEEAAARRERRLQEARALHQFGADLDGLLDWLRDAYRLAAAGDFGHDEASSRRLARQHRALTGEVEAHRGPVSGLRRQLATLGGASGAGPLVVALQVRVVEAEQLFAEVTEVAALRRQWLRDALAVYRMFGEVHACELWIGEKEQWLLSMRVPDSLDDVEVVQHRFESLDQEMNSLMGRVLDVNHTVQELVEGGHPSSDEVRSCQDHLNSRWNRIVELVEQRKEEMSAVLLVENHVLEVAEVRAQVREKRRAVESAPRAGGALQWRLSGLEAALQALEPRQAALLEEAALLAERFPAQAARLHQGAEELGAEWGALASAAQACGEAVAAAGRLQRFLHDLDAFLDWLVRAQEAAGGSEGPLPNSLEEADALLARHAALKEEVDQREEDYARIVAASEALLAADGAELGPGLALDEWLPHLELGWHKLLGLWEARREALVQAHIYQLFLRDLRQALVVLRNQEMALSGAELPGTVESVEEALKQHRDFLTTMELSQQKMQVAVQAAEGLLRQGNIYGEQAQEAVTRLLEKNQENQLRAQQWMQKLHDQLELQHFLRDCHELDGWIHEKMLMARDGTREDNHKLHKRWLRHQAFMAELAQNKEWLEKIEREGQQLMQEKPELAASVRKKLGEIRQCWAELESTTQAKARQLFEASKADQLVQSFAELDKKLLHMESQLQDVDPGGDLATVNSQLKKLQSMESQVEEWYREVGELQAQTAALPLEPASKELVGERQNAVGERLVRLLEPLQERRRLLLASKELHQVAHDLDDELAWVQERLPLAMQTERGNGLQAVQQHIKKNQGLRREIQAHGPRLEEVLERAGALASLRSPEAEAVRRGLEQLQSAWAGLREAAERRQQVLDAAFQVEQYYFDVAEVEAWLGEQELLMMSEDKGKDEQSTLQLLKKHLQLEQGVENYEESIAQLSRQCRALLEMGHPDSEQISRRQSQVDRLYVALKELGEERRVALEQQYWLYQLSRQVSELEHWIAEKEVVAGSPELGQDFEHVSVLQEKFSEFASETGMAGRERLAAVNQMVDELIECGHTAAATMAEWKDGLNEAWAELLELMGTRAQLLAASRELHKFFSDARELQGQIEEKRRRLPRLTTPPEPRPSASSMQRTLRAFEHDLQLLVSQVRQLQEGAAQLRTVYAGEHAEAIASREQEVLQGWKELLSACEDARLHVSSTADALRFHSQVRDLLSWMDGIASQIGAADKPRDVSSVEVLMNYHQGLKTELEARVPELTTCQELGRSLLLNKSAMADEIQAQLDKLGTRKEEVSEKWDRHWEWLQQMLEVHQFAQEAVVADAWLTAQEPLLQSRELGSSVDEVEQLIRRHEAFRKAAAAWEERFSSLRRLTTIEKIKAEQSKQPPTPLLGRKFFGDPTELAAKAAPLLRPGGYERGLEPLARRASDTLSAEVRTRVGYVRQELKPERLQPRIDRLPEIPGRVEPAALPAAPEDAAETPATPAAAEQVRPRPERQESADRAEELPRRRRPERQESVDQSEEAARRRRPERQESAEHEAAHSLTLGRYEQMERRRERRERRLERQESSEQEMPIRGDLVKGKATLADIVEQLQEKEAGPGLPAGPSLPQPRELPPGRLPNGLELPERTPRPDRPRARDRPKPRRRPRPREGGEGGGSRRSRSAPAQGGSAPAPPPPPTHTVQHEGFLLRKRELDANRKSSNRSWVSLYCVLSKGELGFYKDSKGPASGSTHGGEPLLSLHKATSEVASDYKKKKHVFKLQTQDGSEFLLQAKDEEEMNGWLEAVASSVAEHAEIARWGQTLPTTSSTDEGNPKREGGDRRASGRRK
# Compound: Cn1cncc1[C@@](N)(c1ccc(Cl)cc1)c1ccc2c(c1)c(-c1cccc(Cl)c1)cc(=O)n2C [tipifarnib]
# Assay: log2 fold change, soluble protein after heating vs DMSO (PISA); higher = thermal stabilisation; K562 cells, 10 uM, 30 min; active = over 0.2 and 3.5 SD of the protein, either way, in both replicates (recomputed)
# How it was run: (§1)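 Soluble protein was defined as the supernatant after 21,000xg for 90 min. It came from K562 cells at 2×10^6 cells/mL given 10 μM compound for 30 min, heated in aliquots for 3 min across 48°C-58°C, pooled, and extracted in PBS with 0.5% NP-40 at 4°C, and was quantified by TMTpro 16plex LC-MS/MS with equalised channel sums. Thermal stability against control samples, from duplicates, is reported as log2 fold change.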
row,Target,log2 fold change
1,SPAST (UniProt Q9UBP0),inactive: -0.065
2,SPHK1 isoform 2 (UniProt Q9NYA1),inactive: -0.051
3,SPPL2A (UniProt Q8TCT8),inactive: 0.13
4,SRA1 (UniProt Q9HD15),inactive: -0.101
5,STIM1 (UniProt Q13586),inactive: 0.012
6,SPTBN1 (UniProt Q01082),inactive: -0.045
7,SRSF3 (UniProt P84103),inactive: 0.134
8,SPECC1 (UniProt Q5M775),inactive: 0.028
9,STAG1 (UniProt Q8WVM7),inactive: 0.003
10,SPPL2B (UniProt Q8TCT7),inactive: 0.036
11,SRP54 (UniProt P61011),inactive: -0.061
12,ST3GAL2 (UniProt Q16842),inactive: 0.076
13,SRSF1 (UniProt Q07955),inactive: 0.121
14,STAT1 (UniProt P42224),inactive: 0.132
15,STAT5B (UniProt P51692),inactive: -0.163
16,ST6GALNAC1 (UniProt Q9NSC7),inactive: -0.057
17,STEAP3 isoform 2 (UniProt Q658P3),inactive: -0.085
18,SPRYD4 (UniProt Q8WW59),inactive: 0.019
19,SRGAP2 (UniProt O75044),inactive: 0.048
20,SRPK2 isoform 2 (UniProt P78362),inactive: 0.232

row,Target,log2 fold change
1,SPART (UniProt Q8N0X7),inactive: -0.077
2,STK24 (UniProt Q9Y6E0),inactive: -0.027
3,STAT3 (UniProt P40763),inactive: -0.172
4,SPECC1L (UniProt Q69YQ0),inactive: -0.04
5,SSU72 (UniProt Q9NP77),inactive: -0.12
6,SPTLC1 (UniProt O15269),inactive: -0.027
7,SRFBP1 (UniProt Q8NEF9),inactive: 0.177
8,STAU2 (UniProt Q9NUL3),inactive: -0.334
9,STAT5A (UniProt P42229),inactive: -0.107
10,SRSF4 (UniProt Q08170),inactive: 0.127
11,SRP72 (UniProt O76094),inactive: -0.148
12,SRSF7 (UniProt Q16629),inactive: 0.181
13,SSR4 (UniProt P51571),inactive: -0.063
14,SPTBN4 (UniProt Q9H254),inactive: -0.09
15,SPATA5L1 (UniProt Q9BVQ7),inactive: 0.048
16,SPG11 (UniProt Q96JI7),inactive: 0.258
17,STAT6 (UniProt P42226),inactive: -0.164
18,STARD9 (UniProt Q9P2P6),inactive: 0.07
19,SREK1 isoform 2 (UniProt Q8WXA9),inactive: 0.031

# Compound: FC(F)(F)c1ccc(/C=C/c2nc(COc3ccc(CCCCn4ccnn4)cc3)co2)cc1 [mubritinib]
# Assay: as above
# How it was run: as §1
row,Target,log2 fold change
1,SPAST (UniProt Q9UBP0),inactive: 0.036
2,SPHK1 isoform 2 (UniProt Q9NYA1),inactive: 0.073
3,SPPL2A (UniProt Q8TCT8),inactive: 0.085
4,SRA1 (UniProt Q9HD15),inactive: 0.049
5,STIM1 (UniProt Q13586),inactive: 0.016
6,SPTBN1 (UniProt Q01082),inactive: -0.075
7,SRSF3 (UniProt P84103),inactive: -0.097
8,SPECC1 (UniProt Q5M775),inactive: 0.044
9,STAG1 (UniProt Q8WVM7),inactive: 0.072
10,SPPL2B (UniProt Q8TCT7),inactive: -0.008
11,SRP54 (UniProt P61011),inactive: 0.037
12,ST3GAL2 (UniProt Q16842),inactive: -0.026
13,SRSF1 (UniProt Q07955),inactive: -0.078
14,STAT1 (UniProt P42224),inactive: -0.159
15,STAT5B (UniProt P51692),inactive: 0.308
16,ST6GALNAC1 (UniProt Q9NSC7),inactive: -0.004
17,STEAP3 isoform 2 (UniProt Q658P3),inactive: -0.034
18,SPRYD4 (UniProt Q8WW59),inactive: 0.01
19,SRGAP2 (UniProt O75044),inactive: 0.026
20,SRPK2 isoform 2 (UniProt P78362),inactive: -0.105

row,Target,log2 fold change
1,SPART (UniProt Q8N0X7),inactive: 0.063
2,STK24 (UniProt Q9Y6E0),inactive: 0.005
3,STAT3 (UniProt P40763),inactive: 0.024
4,SPECC1L (UniProt Q69YQ0),inactive: 0.073
5,SSU72 (UniProt Q9NP77),inactive: -0.143
6,SPTLC1 (UniProt O15269),inactive: 0.072
7,SRFBP1 (UniProt Q8NEF9),inactive: -0.129
8,STAU2 (UniProt Q9NUL3),inactive: -0.095
9,STAT5A (UniProt P42229),active: 0.371
10,SRSF4 (UniProt Q08170),inactive: -0.109
11,SRP72 (UniProt O76094),inactive: -0.036
12,SRSF7 (UniProt Q16629),inactive: -0.128
13,SSR4 (UniProt P51571),inactive: 0.003
14,SPTBN4 (UniProt Q9H254),inactive: 0.066
15,SPATA5L1 (UniProt Q9BVQ7),inactive: -0.01
16,SPG11 (UniProt Q96JI7),inactive: -0.009
17,STAT6 (UniProt P42226),inactive: 0.179
18,STARD9 (UniProt Q9P2P6),inactive: 0.129
19,SREK1 isoform 2 (UniProt Q8WXA9),inactive: 0.063

# Reference: the supplement of paper PMC10849652
